Article PMC7109600
These are yes or no findings as the source states them, for the method shown. Binding seen in cells or lysates may run through a third protein. Some results given as binding are weak or reduced against the parent protein; the word gives no strength.

Molecular target: SFB-RNF40 (full-length human RNF40), expressed in HCT116 cells (human) (UniProt O75150)
Test: co-IP; HCT116 cells transfected with HA-p53 and SFB-RNF20 or SFB-RNF40; lysed with NETN300 buffer; IP and western blot, both directions

**Q.** Which binding does the source give for “HA-p53 (human p53 in pCMV-HA), expressed in HCT116 cells (from UniProt P04637 1-393)” here?
**A.** binds
